Assay results reported in US10307403B2, “Polymorphic forms and process” (GALECTO BIOTECH AB, priority 2015, dated 2019).

Test: Microbial limits within ICH stability study
[1] = Initial, criterion absent in 1 g

OC[C@H]1O[C@@H](S[C@@H]2O[C@H](CO)[C@H](O)[C@H](n3cc(-c4cccc(F)c4)nn3)[C@H]2O)[C@H](O)[C@@H](n2cc(-c3cccc(F)c3)nn2)[C@H]1O [Form 1, 3,3′-Dideoxy-3,3′-bis-[4-(3-fluorophenyl)-1H-1,2,3-triazol-1-yl]-1,1′-sulfanediyl-di-β-D-galactopyranoside]
absent/g: Microbial Limits P. aeruginosa (6 Months @ 40° C./75 RH) | Microbial Limits S. aureus (6 Months @ 40° C./75 RH) | Microbial Limits P. aeruginosa (12 Months 25° C./60 RH) | Microbial Limits S. aureus (12 Months 25° C./60 RH) | Microbial Limits P. aeruginosa [1] | Microbial Limits S. aureus [1]
